Reference: patent US20250074943A1, “DLL3 BINDING PEPTIDES AND USES THEREOF” (AMGEN INC., priority 2021, published 2025)
Part of at least one peptide drawing is inferred or uncertain, most often the ends. Bridge positions count the residues as written; N and C are the ends. Peptide text beside a SMILES is read from it. * marks the point of attachment. X1 = NC(=O)[C@H](CCCCNC(=O)CCOCCOCCOCCOCCNC(=O)CCC(=O)N1Cc2ccccc2C#Cc2ccccc21)NC(=O)CCC(=O)NCCCOCCOCCOCCCN*

Tests used:
Type in all cases: cell-based
[1] = biological target: T1, CHO cells that express human DLL3 (Homo sapiens, UniProt Q9NYJ7); test: Flow cytometry binding of biotin labeled peptide, CHO huDLL3; details: labeled with biotin, detected with anti-streptavidin-AF488; 100 M PepSP1462-biotin, 30 minutes at 4° C.; FIG. 3
T1 construct: expressed in transfected cells; host or cells: CHO
T1 sequence (Q9NYJ7 27-618): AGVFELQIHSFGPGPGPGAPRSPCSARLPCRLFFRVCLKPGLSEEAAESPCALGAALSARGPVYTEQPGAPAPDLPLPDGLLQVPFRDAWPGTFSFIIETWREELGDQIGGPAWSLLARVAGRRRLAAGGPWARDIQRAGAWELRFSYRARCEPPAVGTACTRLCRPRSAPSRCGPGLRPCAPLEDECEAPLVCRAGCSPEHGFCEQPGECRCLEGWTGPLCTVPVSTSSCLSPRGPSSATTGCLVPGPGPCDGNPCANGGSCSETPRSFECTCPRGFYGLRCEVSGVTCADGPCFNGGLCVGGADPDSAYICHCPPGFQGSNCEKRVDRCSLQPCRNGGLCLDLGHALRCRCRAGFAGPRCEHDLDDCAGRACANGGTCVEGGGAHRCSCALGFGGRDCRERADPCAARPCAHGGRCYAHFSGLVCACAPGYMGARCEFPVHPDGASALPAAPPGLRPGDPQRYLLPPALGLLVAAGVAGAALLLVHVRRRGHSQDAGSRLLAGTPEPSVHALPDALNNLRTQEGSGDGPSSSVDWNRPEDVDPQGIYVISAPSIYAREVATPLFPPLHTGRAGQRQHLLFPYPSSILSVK

[2] = biological target: T2, CHO cells that express mouse DLL3 (Mus musculus, UniProt O88516); test: Flow cytometry binding of biotin labeled peptide, CHO muDLL3; details: labeled with biotin, detected with anti-streptavidin-AF488; 100 M PepSP1462-biotin, 30 minutes at 4° C.; FIG. 3
T2 construct: expressed in transfected cells; host or cells: CHO
T2 sequence (O88516 33-592): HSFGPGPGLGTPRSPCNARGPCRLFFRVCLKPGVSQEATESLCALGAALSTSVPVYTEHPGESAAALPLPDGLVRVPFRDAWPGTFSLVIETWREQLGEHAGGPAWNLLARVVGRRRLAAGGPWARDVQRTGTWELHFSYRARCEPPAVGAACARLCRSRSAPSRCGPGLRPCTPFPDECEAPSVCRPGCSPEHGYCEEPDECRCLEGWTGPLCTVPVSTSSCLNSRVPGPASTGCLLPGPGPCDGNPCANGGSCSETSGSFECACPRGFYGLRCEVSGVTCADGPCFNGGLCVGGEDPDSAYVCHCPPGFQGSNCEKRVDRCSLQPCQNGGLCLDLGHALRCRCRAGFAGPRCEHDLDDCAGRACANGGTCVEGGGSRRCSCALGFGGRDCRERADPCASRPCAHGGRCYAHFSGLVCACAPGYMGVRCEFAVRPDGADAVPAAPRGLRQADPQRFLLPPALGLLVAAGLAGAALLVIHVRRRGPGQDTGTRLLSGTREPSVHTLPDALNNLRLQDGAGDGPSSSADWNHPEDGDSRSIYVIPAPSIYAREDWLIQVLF

[3] = tested on: CHO cells that express cynomolgus monkey DLL3; test: Flow cytometry binding of biotin labeled peptide, CHO cynoDLL3; details: labeled with biotin, detected with anti-streptavidin-AF488; 100 M PepSP1462-biotin, 30 minutes at 4° C.; FIG. 3
[4] = biological target: T3, CHO cells that express rat DLL3 (Rattus norvegicus, UniProt O88671); test: Flow cytometry binding of biotin labeled peptide, CHO rtDLL3; details: labeled with biotin, detected with anti-streptavidin-AF488; 100 M PepSP1462-biotin, 30 minutes at 4° C.; FIG. 3
T3 construct: expressed in transfected cells; host or cells: CHO
T3 sequence (O88671 33-589): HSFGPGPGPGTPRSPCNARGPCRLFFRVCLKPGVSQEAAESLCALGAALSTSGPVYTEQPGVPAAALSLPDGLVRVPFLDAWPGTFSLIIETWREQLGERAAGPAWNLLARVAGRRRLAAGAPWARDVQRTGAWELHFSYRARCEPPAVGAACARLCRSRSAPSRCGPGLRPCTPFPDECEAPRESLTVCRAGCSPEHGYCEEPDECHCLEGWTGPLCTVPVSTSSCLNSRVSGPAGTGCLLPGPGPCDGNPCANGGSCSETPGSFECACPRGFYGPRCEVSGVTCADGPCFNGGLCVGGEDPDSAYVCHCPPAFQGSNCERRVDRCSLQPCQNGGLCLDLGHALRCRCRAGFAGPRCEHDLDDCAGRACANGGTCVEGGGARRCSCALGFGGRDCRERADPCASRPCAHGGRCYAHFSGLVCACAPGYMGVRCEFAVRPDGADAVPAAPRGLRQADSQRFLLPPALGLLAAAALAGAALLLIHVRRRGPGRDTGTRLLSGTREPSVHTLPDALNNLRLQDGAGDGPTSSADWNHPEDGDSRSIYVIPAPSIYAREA

[5] = tested on: CHO cells that are not transfected with DLL3 (CHO huFLT3); test: Flow cytometry binding of biotin labeled peptide, DLL3-negative control cells; details: detected with anti-streptavidin-AF488, 100 M PepSP1462-biotin, 30 minutes at 4° C., FIG. 3

CC(=O)N[C@@H](C)C(=O)N[C@@H](CCC(=O)O)C(=O)N[C@H](C(=O)N[C@H](C(=O)N[C@@H](CCC(=O)O)C(=O)N[C@@H](Cc1ccccc1)C(=O)N[C@@H](Cc1c[nH]c2ccccc12)C(=O)N[C@@H](Cc1c[nH]c2ccccc12)C(=O)N[C@H]1CSSC[C@@H](C(=O)N[C@H](C(=O)N[C@@H](Cc2c[nH]c3ccccc23)C(=O)NCC(=O)NCC(=O)NCCCOCCOCCOCCCNC(=O)CCC(=O)N[C@@H](CCCCNC(=O)CCOCCOCCOCCOCCNC(=O)CCC(=O)N2Cc3ccccc3C#Cc3ccccc32)C(N)=O)[C@@H](C)O)NC(=O)[C@H]([C@@H](C)O)NC(=O)[C@H](Cc2c[nH]c3ccccc23)NC(=O)[C@H](CC(N)=O)NC(=O)[C@H](CCC(=O)O)NC(=O)[C@H](CO)NC(=O)[C@H](CC(N)=O)NC(=O)CNC(=O)[C@H](CC(N)=O)NC1=O)C(C)C)[C@@H](C)O [PepSP1462] (Ac-AETVEFWWCNGNSENWTCTWGG-X1; disulfide 9-18 (inferred))
binding to CHO cells, human DLL3 [1]: binds | binding to CHO cells, mouse DLL3 [2]: binds | binding to CHO cells, cynomolgus monkey DLL3 [3]: binds | binding to CHO cells, rat DLL3 [4]: binds | binding to DLL3-negative CHO huFLT3 cells [5]: does not bind
